For assay [1], the target named is T1, N-SMase2 overexpressed in HEK293 cells (pRC/N-SMase2) (UniProt Q9JJY3).
T1 sequence: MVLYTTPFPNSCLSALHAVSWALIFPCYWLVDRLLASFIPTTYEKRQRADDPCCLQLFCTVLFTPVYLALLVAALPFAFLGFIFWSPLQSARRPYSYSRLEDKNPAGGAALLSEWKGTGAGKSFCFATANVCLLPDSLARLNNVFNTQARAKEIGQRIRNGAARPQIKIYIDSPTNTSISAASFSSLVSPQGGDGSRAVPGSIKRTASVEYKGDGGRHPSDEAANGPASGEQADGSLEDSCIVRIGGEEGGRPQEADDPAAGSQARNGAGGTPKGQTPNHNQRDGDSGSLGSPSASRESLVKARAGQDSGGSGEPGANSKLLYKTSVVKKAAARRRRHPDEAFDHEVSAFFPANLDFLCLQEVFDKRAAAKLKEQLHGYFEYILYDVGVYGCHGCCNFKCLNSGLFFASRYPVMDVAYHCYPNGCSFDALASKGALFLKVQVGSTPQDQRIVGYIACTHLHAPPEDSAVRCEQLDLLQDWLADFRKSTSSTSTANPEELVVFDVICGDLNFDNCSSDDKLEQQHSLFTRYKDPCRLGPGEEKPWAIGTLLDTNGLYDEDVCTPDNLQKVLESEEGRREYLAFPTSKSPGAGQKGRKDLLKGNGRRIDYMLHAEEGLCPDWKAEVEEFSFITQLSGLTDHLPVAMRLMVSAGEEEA
Nature of the assay: cross-linking + co-IP; HEK293 cells transfected with N-SMase2, treated with 2 mM DSP on ice for 1 h, solubilized in 25 mM Tris-HCl pH 7.5, 2 mM EDTA, 0.1% Triton X-100, 137 mM NaCl; immunoprecipitates immunoblotted. (In general: Immunoblotting shows a protein as a band on a membrane.)

By UniProt entry, the sequences of proteins in these tests, tags left out. Residues count along the entry.
UniProt P10809, residues 27-573: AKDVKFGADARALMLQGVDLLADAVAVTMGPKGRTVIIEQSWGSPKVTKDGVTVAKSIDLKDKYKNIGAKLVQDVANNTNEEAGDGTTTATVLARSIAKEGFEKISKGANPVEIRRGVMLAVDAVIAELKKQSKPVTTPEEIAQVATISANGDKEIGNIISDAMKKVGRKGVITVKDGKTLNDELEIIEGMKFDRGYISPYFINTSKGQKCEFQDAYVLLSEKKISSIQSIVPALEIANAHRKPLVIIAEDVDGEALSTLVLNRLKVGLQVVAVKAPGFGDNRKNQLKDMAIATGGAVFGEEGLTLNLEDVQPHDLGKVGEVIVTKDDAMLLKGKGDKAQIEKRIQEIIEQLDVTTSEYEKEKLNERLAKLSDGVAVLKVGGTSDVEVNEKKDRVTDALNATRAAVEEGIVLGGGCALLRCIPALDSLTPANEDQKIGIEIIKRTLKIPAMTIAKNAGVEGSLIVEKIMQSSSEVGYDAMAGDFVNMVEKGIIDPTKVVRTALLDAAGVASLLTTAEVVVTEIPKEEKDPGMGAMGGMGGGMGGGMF
UniProt P61604: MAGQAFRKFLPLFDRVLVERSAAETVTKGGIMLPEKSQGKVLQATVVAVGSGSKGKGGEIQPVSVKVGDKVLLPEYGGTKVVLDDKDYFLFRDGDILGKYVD
UniProt P63039, residues 27-573: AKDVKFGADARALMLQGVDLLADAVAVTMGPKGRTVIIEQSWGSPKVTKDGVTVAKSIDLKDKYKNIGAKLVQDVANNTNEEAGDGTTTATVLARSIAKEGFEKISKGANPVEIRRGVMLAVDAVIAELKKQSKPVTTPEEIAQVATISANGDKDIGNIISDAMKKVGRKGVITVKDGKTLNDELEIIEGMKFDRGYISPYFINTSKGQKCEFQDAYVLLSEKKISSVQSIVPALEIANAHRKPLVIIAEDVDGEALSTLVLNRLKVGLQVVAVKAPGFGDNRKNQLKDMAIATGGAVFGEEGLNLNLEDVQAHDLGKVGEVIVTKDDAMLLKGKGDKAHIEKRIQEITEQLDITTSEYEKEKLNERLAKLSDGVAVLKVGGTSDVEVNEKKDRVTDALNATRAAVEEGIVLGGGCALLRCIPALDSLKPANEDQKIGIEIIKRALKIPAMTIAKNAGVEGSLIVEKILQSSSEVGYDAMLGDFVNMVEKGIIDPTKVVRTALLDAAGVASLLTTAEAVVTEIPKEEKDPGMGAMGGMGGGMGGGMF

Assay [2] addresses T1, N-SMase2 overexpressed in HEK293 cells (pRC/N-SMase2). Nature of the assay: proximity ligation; fixed, permeabilized HEK293 cells transfected with N-SMase2; mouse anti-N-SMase2 and goat anti-Hsp60, Duolink In Situ kit, confocal microscopy.
For assay [3], the target named is Hsp60, endogenous in HEK293 cells (human (endogenous in HEK293)) (UniProt P10809). In words: co-IP; lysate of HEK293 cells transfected with N-SMase2, no crosslinker; antibodies against Hsp60 and N-SMase2; N-SMase activity of the immunoprecipitates (data not shown).
In assay [4] the target is Hsp10, endogenous in HEK293 cells (human (endogenous in HEK293)) (UniProt P61604). Nature of the assay: cross-linking + co-IP; HEK293 cells transfected with N-SMase2, treated with 2 mM DSP on ice for 1 h, solubilized in 25 mM Tris-HCl pH 7.5, 2 mM EDTA, 0.1% Triton X-100, 137 mM NaCl; immunoprecipitates immunoblotted.
Assay [5] has as its target Hsp60, endogenous in PC12 cells (rat (endogenous in PC12)) (UniProt P63039). Nature of the assay: co-IP; PC12 cell lysate, endogenous proteins, with or without N-SMase2 siRNA; antibodies against Hsp60 or N-SMase2; N-SMase activity of the pellets and immunoblot.
Assay [6] has as its target Hsp60, rat brain synaptosomes (rat (endogenous in rat brain)) (UniProt P63039). Nature of the assay: co-IP; rat brain synaptosome fraction; anti-Hsp60 and anti-N-SMase2 antibodies; N-SMase activity of the immunoprecipitates.

Where a chain is given by its changes, count along the chain named. No constants are given. Whether binding was seen depends on the method and setting. In cells and extracts the contact can be indirect. Some entries that bind do so weakly or less than the wild type.

For the molecule “Hsp60, endogenous in HEK293 cells (from UniProt P10809 27-573)”, the binding entry in assay [1] and in assay [2] was “binds” throughout.

B1: N-SMase2 overexpressed in HEK293 cells (pRC/N-SMase2) (enzyme, UniProt Q9JJY3 1-655)
chain: T1 sequence
With B1, the binding result in assay [3] is listed as “binds”; in assay [4], “no binding”.

B2: N-SMase2, endogenous in PC12 cells (enzyme, UniProt O35049 1-655)
chain: T1 sequence with L35V, C54Y, N104S, G193S, S196A, P253A, A261P, A317S, V469I, T552I
Consider B2, for which the binding result in assay [5] is given as “binds”.

B3: N-SMase2, rat brain synaptosomes (enzyme, UniProt O35049 1-655)
chain: T1 sequence with L35V, C54Y, N104S, G193S, S196A, P253A, A261P, A317S, V469I, T552I
For the molecule B3, in assay [6], the binding entry is given as “binds”.

For the origin of these results see publication PMC3686747.
